This is one part of the list.
The targets below were run with C[C@H](C1=CC=C(C=C1)C(=O)NC2=C3C=CNC3=NC=C2)N (assay: log2 fold change, soluble protein after heating vs DMSO (PISA); higher = thermal stabilisation; K562 cells, 10 uM, 30 min; active = over 0.2 and 3.5 SD of the protein, either way, in both replicates (recomputed)).
Outline: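 Soluble protein was quantified by TMTpro 16plex LC-MS/MS after channel sums were equalised. It was obtained as the supernatant after 21,000xg for 90 min from pooled aliquots of K562 cells (2×10^6 cells/mL, 10 μM compound, 30 min) heated for 3 min across 48°C-58°C and extracted in PBS with 0.5% NP-40 at 4°C. Thermal stability values are relative to control samples and come from duplicates. They are given as log2 fold changes.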

The chains behind the UniProt entries cited, without tags or fusion partners. Where a name states a change or a piece, a line headed by the entry shows the natural chain unless it says otherwise.
UniProt Q6PJG6: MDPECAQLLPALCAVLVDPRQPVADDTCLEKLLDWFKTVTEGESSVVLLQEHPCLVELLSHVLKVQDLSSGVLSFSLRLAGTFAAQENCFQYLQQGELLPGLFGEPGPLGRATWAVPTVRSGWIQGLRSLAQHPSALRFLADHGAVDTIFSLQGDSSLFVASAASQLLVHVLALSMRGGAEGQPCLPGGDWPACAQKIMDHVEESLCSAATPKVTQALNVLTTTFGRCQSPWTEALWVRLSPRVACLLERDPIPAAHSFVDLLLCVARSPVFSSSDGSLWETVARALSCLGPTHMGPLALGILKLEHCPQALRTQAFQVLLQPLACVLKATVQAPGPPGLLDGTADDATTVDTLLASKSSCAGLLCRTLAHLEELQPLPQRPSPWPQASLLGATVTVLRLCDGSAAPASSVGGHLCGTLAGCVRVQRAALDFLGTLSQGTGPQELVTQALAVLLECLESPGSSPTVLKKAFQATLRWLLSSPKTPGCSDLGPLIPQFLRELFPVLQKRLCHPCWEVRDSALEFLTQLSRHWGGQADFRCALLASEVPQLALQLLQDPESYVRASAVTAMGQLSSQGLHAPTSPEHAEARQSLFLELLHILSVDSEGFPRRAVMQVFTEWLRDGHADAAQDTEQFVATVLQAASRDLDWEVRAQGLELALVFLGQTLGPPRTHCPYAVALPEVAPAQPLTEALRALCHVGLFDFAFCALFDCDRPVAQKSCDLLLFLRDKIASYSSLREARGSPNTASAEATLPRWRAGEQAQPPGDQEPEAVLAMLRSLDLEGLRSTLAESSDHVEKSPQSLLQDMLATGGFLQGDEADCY
UniProt Q9NUP1: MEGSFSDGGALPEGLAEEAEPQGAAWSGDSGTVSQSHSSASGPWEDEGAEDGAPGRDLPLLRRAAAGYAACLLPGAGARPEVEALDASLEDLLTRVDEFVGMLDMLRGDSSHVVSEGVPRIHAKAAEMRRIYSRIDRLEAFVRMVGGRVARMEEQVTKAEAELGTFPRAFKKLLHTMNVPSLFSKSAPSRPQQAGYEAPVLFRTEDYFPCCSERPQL
UniProt Q8WXE1: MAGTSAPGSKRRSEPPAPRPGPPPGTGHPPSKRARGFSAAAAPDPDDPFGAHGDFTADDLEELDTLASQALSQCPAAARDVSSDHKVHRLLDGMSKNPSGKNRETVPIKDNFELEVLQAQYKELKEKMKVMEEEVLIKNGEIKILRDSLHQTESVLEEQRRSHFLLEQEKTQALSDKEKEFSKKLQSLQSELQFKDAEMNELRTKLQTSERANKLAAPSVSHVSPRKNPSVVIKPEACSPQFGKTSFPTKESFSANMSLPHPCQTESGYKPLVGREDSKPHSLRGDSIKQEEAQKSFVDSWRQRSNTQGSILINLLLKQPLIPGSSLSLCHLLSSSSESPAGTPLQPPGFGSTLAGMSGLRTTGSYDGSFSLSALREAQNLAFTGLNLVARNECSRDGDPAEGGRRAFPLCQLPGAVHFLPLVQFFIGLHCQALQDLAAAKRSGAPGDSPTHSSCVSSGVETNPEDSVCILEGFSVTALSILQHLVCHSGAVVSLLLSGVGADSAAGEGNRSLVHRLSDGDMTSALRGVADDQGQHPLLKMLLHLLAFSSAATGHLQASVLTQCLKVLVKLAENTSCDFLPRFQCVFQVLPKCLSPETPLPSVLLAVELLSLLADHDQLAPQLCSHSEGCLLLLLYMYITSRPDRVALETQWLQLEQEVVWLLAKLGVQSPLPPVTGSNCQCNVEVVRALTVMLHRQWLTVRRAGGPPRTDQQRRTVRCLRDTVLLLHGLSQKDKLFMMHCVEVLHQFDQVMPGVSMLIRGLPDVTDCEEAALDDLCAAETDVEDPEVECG
UniProt O60512: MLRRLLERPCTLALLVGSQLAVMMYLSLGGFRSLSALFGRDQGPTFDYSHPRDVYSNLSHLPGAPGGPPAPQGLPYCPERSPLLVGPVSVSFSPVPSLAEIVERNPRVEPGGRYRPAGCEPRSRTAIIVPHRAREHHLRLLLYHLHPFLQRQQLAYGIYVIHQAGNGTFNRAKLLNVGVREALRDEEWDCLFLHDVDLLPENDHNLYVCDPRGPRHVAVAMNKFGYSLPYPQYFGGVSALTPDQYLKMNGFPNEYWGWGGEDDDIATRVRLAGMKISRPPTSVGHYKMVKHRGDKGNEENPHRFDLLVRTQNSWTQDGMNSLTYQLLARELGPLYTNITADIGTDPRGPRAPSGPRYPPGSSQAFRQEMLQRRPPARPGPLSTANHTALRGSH
UniProt Q8TD16, whole entry, looked up: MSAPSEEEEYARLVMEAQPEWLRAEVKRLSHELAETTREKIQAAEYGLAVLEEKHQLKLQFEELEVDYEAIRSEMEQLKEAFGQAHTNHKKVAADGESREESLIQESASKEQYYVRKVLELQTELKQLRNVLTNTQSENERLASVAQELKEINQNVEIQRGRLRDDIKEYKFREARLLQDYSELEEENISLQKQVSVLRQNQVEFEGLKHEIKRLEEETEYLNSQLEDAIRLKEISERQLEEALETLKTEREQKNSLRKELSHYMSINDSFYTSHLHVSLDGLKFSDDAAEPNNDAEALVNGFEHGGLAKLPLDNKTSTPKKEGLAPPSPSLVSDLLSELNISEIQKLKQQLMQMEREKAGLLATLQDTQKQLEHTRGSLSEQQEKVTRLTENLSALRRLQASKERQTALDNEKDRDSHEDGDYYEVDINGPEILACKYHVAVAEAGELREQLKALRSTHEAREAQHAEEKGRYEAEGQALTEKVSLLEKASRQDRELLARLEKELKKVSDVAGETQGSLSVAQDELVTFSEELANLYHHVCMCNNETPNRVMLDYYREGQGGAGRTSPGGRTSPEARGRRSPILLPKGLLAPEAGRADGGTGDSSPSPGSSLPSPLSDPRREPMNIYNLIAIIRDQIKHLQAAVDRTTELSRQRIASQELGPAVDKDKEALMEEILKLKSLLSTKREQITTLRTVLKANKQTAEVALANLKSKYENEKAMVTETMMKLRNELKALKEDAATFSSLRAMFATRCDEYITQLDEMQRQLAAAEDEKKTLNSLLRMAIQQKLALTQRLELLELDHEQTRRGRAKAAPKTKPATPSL
UniProt Q9NWV8, whole entry, looked up: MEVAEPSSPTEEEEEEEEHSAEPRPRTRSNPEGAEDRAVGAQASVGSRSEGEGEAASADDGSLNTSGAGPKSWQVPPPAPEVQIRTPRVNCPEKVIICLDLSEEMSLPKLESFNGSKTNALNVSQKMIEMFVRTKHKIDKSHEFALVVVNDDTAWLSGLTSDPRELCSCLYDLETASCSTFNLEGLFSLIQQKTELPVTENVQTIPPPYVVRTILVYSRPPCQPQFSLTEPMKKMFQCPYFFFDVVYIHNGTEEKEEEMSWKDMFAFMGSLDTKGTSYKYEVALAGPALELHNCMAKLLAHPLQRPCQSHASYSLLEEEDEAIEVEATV
UniProt Q07812, whole entry, looked up: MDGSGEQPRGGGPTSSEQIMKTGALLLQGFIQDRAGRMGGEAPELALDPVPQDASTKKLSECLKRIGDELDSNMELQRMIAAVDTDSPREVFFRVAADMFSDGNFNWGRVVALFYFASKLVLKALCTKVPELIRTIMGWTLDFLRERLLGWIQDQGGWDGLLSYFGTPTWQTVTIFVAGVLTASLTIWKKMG
UniProt P12694: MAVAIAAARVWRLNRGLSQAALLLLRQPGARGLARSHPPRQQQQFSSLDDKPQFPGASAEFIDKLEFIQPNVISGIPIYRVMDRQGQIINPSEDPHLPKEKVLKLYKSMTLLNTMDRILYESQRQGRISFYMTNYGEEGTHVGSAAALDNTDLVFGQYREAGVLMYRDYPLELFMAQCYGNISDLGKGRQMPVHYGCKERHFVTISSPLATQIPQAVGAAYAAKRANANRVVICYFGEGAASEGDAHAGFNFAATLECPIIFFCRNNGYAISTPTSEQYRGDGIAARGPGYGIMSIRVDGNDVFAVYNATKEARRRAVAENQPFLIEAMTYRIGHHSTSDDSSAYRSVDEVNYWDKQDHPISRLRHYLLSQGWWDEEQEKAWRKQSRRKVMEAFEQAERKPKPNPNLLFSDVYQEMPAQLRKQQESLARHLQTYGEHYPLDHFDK
UniProt Q9H3K6: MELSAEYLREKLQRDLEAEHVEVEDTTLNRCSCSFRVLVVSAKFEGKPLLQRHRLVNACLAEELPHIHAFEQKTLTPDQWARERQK
UniProt O95817, whole entry, looked up: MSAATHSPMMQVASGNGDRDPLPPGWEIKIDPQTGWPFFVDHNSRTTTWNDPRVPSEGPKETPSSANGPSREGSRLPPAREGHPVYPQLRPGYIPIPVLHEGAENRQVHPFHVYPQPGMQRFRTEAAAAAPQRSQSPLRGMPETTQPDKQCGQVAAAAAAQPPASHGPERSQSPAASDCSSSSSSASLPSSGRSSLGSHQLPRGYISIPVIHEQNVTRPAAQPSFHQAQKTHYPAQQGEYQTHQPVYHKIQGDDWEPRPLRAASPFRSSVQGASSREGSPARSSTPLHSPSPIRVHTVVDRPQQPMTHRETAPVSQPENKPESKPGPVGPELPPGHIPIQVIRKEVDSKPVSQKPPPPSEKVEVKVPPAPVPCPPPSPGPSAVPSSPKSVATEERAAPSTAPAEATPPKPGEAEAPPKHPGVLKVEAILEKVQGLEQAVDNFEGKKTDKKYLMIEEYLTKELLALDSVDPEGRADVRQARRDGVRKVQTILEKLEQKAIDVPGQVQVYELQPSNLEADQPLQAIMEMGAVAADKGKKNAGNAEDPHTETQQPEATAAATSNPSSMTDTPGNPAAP
UniProt Q14692: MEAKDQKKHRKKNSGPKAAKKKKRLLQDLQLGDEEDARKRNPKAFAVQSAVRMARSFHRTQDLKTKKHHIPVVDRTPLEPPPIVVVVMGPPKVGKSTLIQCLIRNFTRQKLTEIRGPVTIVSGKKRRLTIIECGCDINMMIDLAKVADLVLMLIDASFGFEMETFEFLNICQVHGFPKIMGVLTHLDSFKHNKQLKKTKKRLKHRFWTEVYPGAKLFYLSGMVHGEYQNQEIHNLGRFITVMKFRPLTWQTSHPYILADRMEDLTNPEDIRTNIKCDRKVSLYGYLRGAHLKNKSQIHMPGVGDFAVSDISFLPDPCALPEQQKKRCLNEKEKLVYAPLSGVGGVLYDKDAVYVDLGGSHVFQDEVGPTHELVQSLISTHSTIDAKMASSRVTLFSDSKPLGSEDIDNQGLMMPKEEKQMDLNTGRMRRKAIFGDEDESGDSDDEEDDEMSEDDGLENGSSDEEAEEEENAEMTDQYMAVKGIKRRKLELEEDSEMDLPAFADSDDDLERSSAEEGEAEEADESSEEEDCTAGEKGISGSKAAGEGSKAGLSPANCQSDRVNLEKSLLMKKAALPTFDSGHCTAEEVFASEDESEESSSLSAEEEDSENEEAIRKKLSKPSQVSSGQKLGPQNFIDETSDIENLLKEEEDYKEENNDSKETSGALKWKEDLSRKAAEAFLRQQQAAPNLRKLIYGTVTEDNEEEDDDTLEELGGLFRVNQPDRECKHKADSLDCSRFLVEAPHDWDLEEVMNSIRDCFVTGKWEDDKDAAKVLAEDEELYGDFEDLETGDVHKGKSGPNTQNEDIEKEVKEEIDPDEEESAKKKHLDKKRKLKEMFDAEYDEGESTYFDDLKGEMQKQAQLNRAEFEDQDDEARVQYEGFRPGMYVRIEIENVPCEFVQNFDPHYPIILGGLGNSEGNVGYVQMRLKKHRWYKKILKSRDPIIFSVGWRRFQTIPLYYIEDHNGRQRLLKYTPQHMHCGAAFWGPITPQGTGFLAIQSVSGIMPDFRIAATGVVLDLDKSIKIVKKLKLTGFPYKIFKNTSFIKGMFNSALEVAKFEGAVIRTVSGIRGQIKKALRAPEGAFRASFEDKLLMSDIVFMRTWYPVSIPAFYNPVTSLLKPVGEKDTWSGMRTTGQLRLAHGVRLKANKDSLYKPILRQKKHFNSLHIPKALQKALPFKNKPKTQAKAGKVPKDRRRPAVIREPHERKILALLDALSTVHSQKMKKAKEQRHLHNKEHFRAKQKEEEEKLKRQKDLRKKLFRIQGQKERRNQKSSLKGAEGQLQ
UniProt O15155: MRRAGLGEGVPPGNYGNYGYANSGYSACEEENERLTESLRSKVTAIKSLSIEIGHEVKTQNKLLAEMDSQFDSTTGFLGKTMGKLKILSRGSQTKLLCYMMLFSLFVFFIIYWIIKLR
UniProt Q8TDH9: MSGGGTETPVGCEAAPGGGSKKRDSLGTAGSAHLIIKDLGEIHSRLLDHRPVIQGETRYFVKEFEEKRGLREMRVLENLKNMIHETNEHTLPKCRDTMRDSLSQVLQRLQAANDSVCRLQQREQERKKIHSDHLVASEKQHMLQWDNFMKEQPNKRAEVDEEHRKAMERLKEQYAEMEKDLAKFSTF
UniProt O94766: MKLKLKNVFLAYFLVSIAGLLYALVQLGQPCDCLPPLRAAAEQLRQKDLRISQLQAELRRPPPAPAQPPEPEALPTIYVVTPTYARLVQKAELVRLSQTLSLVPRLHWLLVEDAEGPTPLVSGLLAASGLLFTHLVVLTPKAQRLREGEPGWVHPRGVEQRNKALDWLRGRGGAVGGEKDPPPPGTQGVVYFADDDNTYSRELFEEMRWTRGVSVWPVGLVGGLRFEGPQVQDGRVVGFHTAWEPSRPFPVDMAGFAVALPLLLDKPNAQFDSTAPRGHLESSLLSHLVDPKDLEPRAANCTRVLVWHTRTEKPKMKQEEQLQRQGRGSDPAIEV

log2 fold change, inactive:
BRAT1 (UniProt Q6PJG6) -0.103, BLOC1S4 (UniProt Q9NUP1) -0.011, ATXN2 (UniProt Q99700) 0.029, BCL2L1 (UniProt Q07817) -0.047, ATRIP (UniProt Q8WXE1) -0.017, B4GALT3 (UniProt O60512) -0.009, BLVRA (UniProt P53004) -0.034, BICD2 isoform 2 (UniProt Q8TD16) 0.012, BABAM1 (UniProt Q9NWV8) -0.011, BAX isoform 2 (UniProt Q07812) -0.022, BCKDHA (UniProt P12694) 0.04, BNIP2 (UniProt J3KN59) -0.084, BOLA2 (UniProt Q9H3K6) -0.055, BIRC2 (UniProt Q13490) -0.02, BAG3 (UniProt O95817) 0.019, BAHCC1 (UniProt Q9P281) 0.244, BMS1 (UniProt Q14692) 0.358, BCKDK (UniProt O14874) 0.106, BET1 (UniProt O15155) -0.025, BPNT1 (UniProt O95861) -0.067, BLOC1S5 (UniProt Q8TDH9) -0.034, B3GAT3 (UniProt O94766) 0.001, BIRC6 (UniProt Q9NR09) 0.092

Reference: the supplement of paper PMC10849652
